Assay results from PubChem BioAssay AID2685 (National Center for Advancing Translational Sciences (NCATS), 2010).
This is one part of the list. Further columns of the screen follow, without active or inactive calls. Compounds called inactive in the main read-out are mostly missing here. The note in brackets gives the kind of curve behind each potency; many fits are weak.

Test: qHTS Assay for Lipid Storage Modulators in Drosophila S3 Cells;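 as to cell number change: cells counted by Cell Tracker Red CMTPX staining in the red channel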
Conditions: BODIPY lipid droplet fluorescence, 18-24 h; for cell number change: measured here: cell count max response, cells fed with added oleic acid
How it was run: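 Drosophila S3 cells got compounds at several concentrations plus oleic acid (400 uM solution). Laser-scanning cytometry with 488 nm excitation read lipid droplets at 500-530 nm and cells at 575-640 nm. Percent activity was relative to 20 uM Triacsin C.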

[1] = measured here: lipid fluorescence (Fed channel) AC50, cells fed with added oleic acid
[2] = measured here: cell number channel AC50, cells fed with added oleic acid

| Structure (SMILES) | cell number change [%] | AC50 [1] | AC50 [2] |
| --- | --- | --- | --- |
| Cc1cccc(N2CCN(C(c3cccs3)c3nnnn3C(C)(C)C)CC2)c1C (stereo not drawn) | 4.65 |  |  |
| CN1CCN(C2CCN(Cc3ccc(O)c4ncccc34)CC2)CC1 | -11.9 | 0.00461 µM [rising, full curve, poor fit] |  |
| C=CCOc1ccc(/C=N/NC(=O)CN2CCCCC2)cc1OC | 4.91 | 7.31 µM [rising, partial curve] |  |
| Cn1c(CCNC(=O)c2ccc(Cl)c(Cl)c2)nnc1SCc1ccc(Cl)c(Cl)c1 | -45.6 | 29.1 µM [falling, single point] | 29.1 µM [falling, single point] |
| CCOC(=O)c1cncc(C#CCO)c1 | 31 |  |  |
| Cc1ccc(NC(=S)NCCc2c[nH]c3ccccc23)c(C)c1 | -5.16 | 7.31 µM [falling, single point] |  |
| CC1(C)Cc2c(sc3nc(-c4ccccc4)n(N)c(=O)c23)CO1 | 0.384 |  | 4.61 µM [falling, single point] |
| COc1ccc(C(=O)C(C)OC(=O)c2nc3nccc(C)n3n2)cc1 (stereo not drawn) | -3.37 | 6.51 µM [falling, single point] |  |
| CC12CCC(C(=O)N(CSC(=S)N/N=C\c3ccccc3)C1=O)C2(C)C (stereo not drawn) | -18.6 | 20.6 µM [falling, partial curve, poor fit] |  |
| CSCCC(NC(=O)c1ccco1)C(=O)NCC(c1ccccc1)N(C)C (stereo not drawn) | 17.7 | 1.84 µM [rising, partial curve] |  |
| O=C(c1cnc2n(c1=O)CCS2)N1CCN(C(c2ccccc2)c2ccc(Cl)cc2)CC1 (stereo not drawn) | 2.75 | 32.6 µM [falling, single point] |  |
| CCOc1ccc(N(CC(=O)NC2CCCC2)C(=O)CCC(=O)Nc2nc(C)cs2)cc1 | 4.03 | 20.6 µM [falling, single point] |  |
| O=S(=O)(CCSc1ccc(C(F)(F)F)cn1)c1ccccc1 | -60.1 | 5.17 µM [falling, partial curve] | 23.1 µM [falling, partial curve, poor fit] |
| O=C(/C=C/c1cccs1)N1CCc2ccccc21 | -2.16 | 0.326 µM [rising, full curve, poor fit] |  |
| CCN(CC(=O)NC(C)C)C(=O)C(CCSC)NC(=O)c1cccc(C)c1 (stereo not drawn) | 54.8 | 29.1 µM [rising, single point] | 6.51 µM [falling, single point] |
| COCCNC(=O)/C(C#N)=C/c1cn(CC(=O)NCc2ccco2)c2ccccc12 | -31.7 | 20.6 µM [falling, single point] | 5.8 µM [falling, single point] |
| c1ccc2c(Cn3ccnc3)c[nH]c2c1 | -11.6 | 4.11 µM [falling, partial curve, poor fit] |  |
| O=C(c1ccccc1)N1CCc2ccccc21 |  |  | 1.84 µM [rising, partial curve, poor fit] |
| COc1cccc(CNC(=O)Cn2ccc3cc(S(=O)(=O)N4CCCC4)ccc32)c1OC | 3.36 |  |  |

| Structure (SMILES) | cell number change [%] | AC50 [1] | AC50 [2] |
| --- | --- | --- | --- |
| COc1ccc2cc(C3CC(c4ccco4)=NN3C(=O)CCC(=O)O)c(Cl)nc2c1 (stereo not drawn) | -21.7 | 0.0291 µM [falling, full curve, poor fit] |  |
| N#Cc1ccc(NC(=O)CN2C(=O)NC(Cc3ccccc3)C2=O)cc1 (stereo not drawn) | -37.5 | 0.00517 µM [falling, full curve, poor fit] | 36.6 µM [falling, partial curve, poor fit] |
| CCCCC1(Br)C(=O)N(c2ccccc2)N(c2ccccc2)C1=O | 2.85 |  |  |
| Cc1nn(-c2ncc(C(F)(F)F)cc2Cl)c(=O)n1-c1ccccc1Cl | 91.3 |  | 29.1 µM [rising, single point] |
| Cc1[nH]c2ccccc2c1C(=O)C(=O)N1CCN(c2cccc(Cl)c2)CC1 | -2.28 | 29.1 µM [rising, single point] |  |
| S=c1[nH]nc(Nc2ccccc2)s1 | 49.2 | 29.1 µM [rising, single point] |  |
| Cc1cc(Br)ccc1OCC(=O)N(Cc1nc(-c2ccccc2)no1)C(C)C | 24.5 | 29.1 µM [rising, single point] |  |
| CCOC(=O)c1c(NC(=O)COc2ncnc3sccc23)sc2c1CCC2 | -19.5 |  |  |
| CC(=O)Nc1c2c(nn1-c1ccc(F)cc1)CSC2 | 28.1 | 25.9 µM [rising, single point] |  |
| Cc1cc(=O)[nH]c(SCC(=O)Nc2cc(S(=O)(=O)N(C)C)ccc2Cl)n1 | -81.5 |  |  |
| CCN(C(=O)CSc1nc2cc(C(F)(F)F)ccc2n1Cc1ccccc1)C1CCS(=O)(=O)C1 (stereo not drawn) | -5.91 | 1.84 µM [falling, partial curve] |  |
| Cc1nn(CCC(N)=O)c2nc(-c3cccs3)cc(C(F)(F)F)c12 | -2.43 | 2.91 µM [rising, single point] |  |
| Cc1ccc(-n2c(Cc3cccn3C)nnc2SCC(=O)N2CCN(c3ccccc3)CC2)cc1 | 1.1 | 0.13 µM [falling, full curve, poor fit] |  |
| CCCC1=C(C(=O)OCC)C(/C=C/c2ccccc2)n2ncnc2N1 (stereo not drawn) | -76.4 |  | 29.1 µM [falling, single point] |
| COc1cccc(CNC(=O)C2CCCN(S(=O)(=O)c3c(C)noc3/C=C/N(C)C)C2)c1 (stereo not drawn) | -3.07 | 0.731 µM [rising, full curve] |  |
| O=C(NCCN1C(=O)S/C(=C\c2ccc(F)cc2)C1=O)c1cccc(S(=O)(=O)N2CCOCC2)c1 |  | 7.31 µM [falling, partial curve, poor fit] |  |
| Cc1ccc(NC(=O)CSCC(=O)N2CCOCC2)cc1 | 27.1 |  |  |
| CCn1c(SC)nnc1-c1nn(-c2ccccc2)ccc1=O | -30.2 |  | 0.058 µM [falling, full curve, poor fit] |
| O=C(NCC1(N2CCCCC2)CCCCC1)C1CC(=O)N(c2ccc3c(c2)OCCO3)C1 (stereo not drawn) | -24.1 | 0.82 µM [falling, full curve, poor fit] | 4.11 µM [falling, full curve, poor fit] |

By substructure: those above with a cyano group (2)

| Structure (SMILES) | cell number change [%] | AC50 [1] | AC50 [2] |
| --- | --- | --- | --- |
| COCCNC(=O)/C(C#N)=C/c1cn(CC(=O)NCc2ccco2)c2ccccc12 | -31.7 | 20.6 µM [falling, single point] | 5.8 µM [falling, single point] |
| N#Cc1ccc(NC(=O)CN2C(=O)NC(Cc3ccccc3)C2=O)cc1 (stereo not drawn) | -37.5 | 0.00517 µM [falling, full curve, poor fit] | 36.6 µM [falling, partial curve, poor fit] |
